# Assay results published in the supplement of paper PMC8728848.
# Some of the results follow.
# What was measured:
# Experiment in all cases: glycan array binding signal (z-score within array); higher = stronger binding
# Conditions in all cases: glycan notation: IUPAC condensed, linker removed
# [1] = target: Gal6S(b1-4)Glc
# Method in brief: (§1)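 Glycan array binding is given as a within-array Z-score, which can be read as non-binding when negative. The arrays, 3228 of them, came from the Consortium for Functional Glycomics database and were retained only where the protein sequence was available. Z-scores were averaged across arrays of the same protein sequence at different concentrations or buffers and across linkers.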
# [2] = target: Gal6S(b1-4)Glc6S
# Method in brief: as §1
# [3] = target: Gal6S(b1-4)GlcNAc
# Method in brief: as §1
# [4] = target: Gal6S(b1-4)GlcNAc6S
# Method in brief: as §1
# [5] = target: GalNAc(a1-3)Gal
# Method in brief: as §1
# [6] = target: GalNAc(a1-3)GalNAc
# Method in brief: as §1
# [7] = target: GalNAc(a1-3)GalNAc(a1-3)Gal(a1-4)Gal(b1-4)GlcNAc
# Method in brief: as §1
# [8] = target: GalNAc(a1-3)GalNAc(b1-3)Gal(a1-4)Gal(b1-4)Glc
# Method in brief: as §1
# [9] = target: GalNAc(b1-3)Gal
# Method in brief: as §1
# [10] = target: GalNAc(b1-3)Gal(a1-4)Gal(b1-4)GlcNAc
# Method in brief: as §1
# [11] = target: GalNAc(b1-3)Gal(a1-4)Gal(b1-4)GlcNAc(b1-3)Gal(b1-4)Glc
# Method in brief: as §1
# [12] = target: GalNAc(b1-3)Gal(a1-6)Gal(b1-4)Glc
# Method in brief: as §1
# [13] = target: GalNAc(b1-3)GalNAc
# Method in brief: as §1
# [14] = target: GalNAc(b1-3)GlcNAc
# Method in brief: as §1
# [15] = target: GalNAc(b1-4)Gal(b1-4)Glc
# Method in brief: as §1
# [16] = target: GalNAc(b1-4)GlcNAc
# Method in brief: as §1
# [17] = target: GalNAc(b1-4)GlcNAc(b1-2)Man
# Method in brief: as §1
# [18] = target: GalNAc(b1-4)GlcNAc(b1-2)Man(a1-3)[GalNAc(b1-4)GlcNAc(b1-2)Man(a1-6)]Man(b1-4)GlcNAc(b1-4)GlcNAc
# Method in brief: as §1
# [19] = target: GalNAc(b1-4)GlcNAc(b1-3)GalNAc(b1-4)GlcNAc
# Method in brief: as §1
# [20] = target: GalNAc(b1-4)GlcNAc6S
# Method in brief: as §1
# [21] = target: GalNAc(b1-6)GalNAc
# Method in brief: as §1
# [22] = target: GalNAc3S(b1-4)GlcNAc
# Method in brief: as §1
# [23] = target: GalNAc3S(b1-4)GlcNAc3S
# Method in brief: as §1
# [24] = target: GalNAc3S(b1-4)[Fuc(a1-3)]GlcNAc
# Method in brief: as §1
# [25] = target: GalNAc4S6S(b1-4)GlcNAc
# Method in brief: as §1
# [26] = target: GalNAc6S(b1-4)GlcNAc
# Method in brief: as §1
# [27] = target: Glc(a1-4)Glc
# Method in brief: as §1
# [28] = target: Glc(a1-4)Glc(a1-4)Glc(a1-4)Glc
# Method in brief: as §1
# [29] = target: Glc(a1-6)Glc(a1-6)Glc
# Method in brief: as §1
# [30] = target: Glc(a1-6)Glc(a1-6)Glc(a1-6)Glc
# Method in brief: as §1
# [31] = target: Glc(b1-4)Glc
# Method in brief: as §1
# [32] = target: Glc(b1-6)Glc
# Method in brief: as §1
# [33] = target: GlcA(b1-3)Gal
# Method in brief: as §1
# [34] = target: GlcA(b1-3)GlcNAc
# Method in brief: as §1
# [35] = target: GlcA(b1-6)Gal
# Method in brief: as §1
# [36] = target: GlcA3S(b1-3)Gal(b1-4)GlcNAc(b1-2)Man
# Method in brief: as §1
# [37] = target: GlcA3S(b1-3)Gal(b1-4)GlcNAc(b1-3)Gal(b1-4)Glc
# Method in brief: as §1
binder,measurement,setting,value
"RbmA (Vibrio cholerae), A0A2H4NFB8 (protein) MSNFKGSIMNKRHYYLASCLALLFSTASYAEVDCELQPVIEANLSLNQNQLASNGGYISSQLGIRNESCETVKFKYWLSIKGPEGIYFPAKAVVGVDTAQQESDALTDGRMLNVTRGFWVPEYMADGKYTVSLQVVAENGEVFKANQEFVKGGDLNSLPELNGLTIDIKNQFGINSVESTGGFVPFTIDLNNGREGEAKVEFWMTAVGPDGLIIPVHSREKWMIIAGNTFSKVRGINFDKSYPAGEYTINAQVVDIVSGERVEQLMTVVKK",glycan array binding signal (z-score),[1],-0.634
same,glycan array binding signal (z-score),[2],-0.918
same,glycan array binding signal (z-score),[3],-0.43
same,glycan array binding signal (z-score),[4],-0.665
same,glycan array binding signal (z-score),[5],-0.479
same,glycan array binding signal (z-score),[6],-0.631
same,glycan array binding signal (z-score),[7],-0.962
same,glycan array binding signal (z-score),[8],-1.12
same,glycan array binding signal (z-score),[9],0.022
same,glycan array binding signal (z-score),[10],-0.439
same,glycan array binding signal (z-score),[11],-0.073
same,glycan array binding signal (z-score),[12],-0.263
same,glycan array binding signal (z-score),[13],-0.118
same,glycan array binding signal (z-score),[14],0.094
same,glycan array binding signal (z-score),[15],0.304
same,glycan array binding signal (z-score),[16],-0.148
same,glycan array binding signal (z-score),[17],-0.181
same,glycan array binding signal (z-score),[18],-0.923
same,glycan array binding signal (z-score),[19],2.09
same,glycan array binding signal (z-score),[20],-0.217
same,glycan array binding signal (z-score),[21],0.616
same,glycan array binding signal (z-score),[22],-0.902
same,glycan array binding signal (z-score),[23],-0.675
same,glycan array binding signal (z-score),[24],0.981
same,glycan array binding signal (z-score),[25],-0.474
same,glycan array binding signal (z-score),[26],-0.009
same,glycan array binding signal (z-score),[27],-0.733
same,glycan array binding signal (z-score),[28],0.33
same,glycan array binding signal (z-score),[29],-0.562
same,glycan array binding signal (z-score),[30],1.03
same,glycan array binding signal (z-score),[31],-1.24
same,glycan array binding signal (z-score),[32],-0.471
same,glycan array binding signal (z-score),[33],-0.353
same,glycan array binding signal (z-score),[34],1.7
same,glycan array binding signal (z-score),[35],-0.721
same,glycan array binding signal (z-score),[36],-0.555
same,glycan array binding signal (z-score),[37],-0.325

# Exported tab-delimited: entries from further up
binder	measurement	setting	value
RbmA (Vibrio cholerae), A0A2H4NFB8 (protein) MSNFKGSIMNKRHYYLASCLALLFSTASYAEVDCELQPVIEANLSLNQNQLASNGGYISSQLGIRNESCETVKFKYWLSIKGPEGIYFPAKAVVGVDTAQQESDALTDGRMLNVTRGFWVPEYMADGKYTVSLQVVAENGEVFKANQEFVKGGDLNSLPELNGLTIDIKNQFGINSVESTGGFVPFTIDLNNGREGEAKVEFWMTAVGPDGLIIPVHSREKWMIIAGNTFSKVRGINFDKSYPAGEYTINAQVVDIVSGERVEQLMTVVKK	glycan array binding signal (z-score)	[1]	-0.634
same	glycan array binding signal (z-score)	[4]	-0.665
same	glycan array binding signal (z-score)	[9]	0.022
same	glycan array binding signal (z-score)	[12]	-0.263
same	glycan array binding signal (z-score)	[13]	-0.118
same	glycan array binding signal (z-score)	[27]	-0.733
same	glycan array binding signal (z-score)	[30]	1.03
same	glycan array binding signal (z-score)	[31]	-1.24
